Values from PubChem BioAssay AID743458 (Peter MacCallum Cancer Centre, 2014).
The whole screen tested about 1,800 reagents; below is an unselected part. Over the whole deposit, 732 (41%) got an active call. 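Calls are per siRNA reagent; a gene was deemed confirmed only if most of its four siRNAs scored.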 The numbers tell different reagents against one gene apart.

Assay: 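Retest earlier hits with independent siRNAs per gene for restoring vorinostat sensitivity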 (follow-up of hits)
Cell system: human HCT116-VR colon cancer cells made resistant to vorinostat
Reagent: single siRNA or pool against human genes, 25 nM per single siRNA
Timing: about 72 h after transfection, including 24 h of drug
Treatment: vorinostat, 2.5 µM final, for 24 h
Read-out: 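Cell viability by fluorescence and apoptosis by caspase 3/7 luminescence under vorinostat, background-corrected, averaged across two plate copies and given as fold change versus mock transfection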
Reading the numbers: viability relative to mock: higher = more living cells than mock; caspase activity relative to mock: higher = more apoptosis than mock
Active means: 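Active means a reduced-viability or caspase-activation class, anything else inactive; classes could only be given to wells that looked healthy when left untreated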

What is on record for CSE1L (chromosome segregation 1 like) #1?
viability relative to mock: 0.48; caspase activity relative to mock: 2.97; viability hit class: reduced viability; caspase hit class: caspase activation; outcome: active

What did the screen give for CSE1L (chromosome segregation 1 like) #2?
viability relative to mock: 0.4; caspase activity relative to mock: 4.87; viability hit class: reduced viability; caspase hit class: caspase activation; outcome: active

What did the screen give for CSE1L (chromosome segregation 1 like) #3?
viability relative to mock: 0.68; caspase activity relative to mock: 6.13; viability hit class: no change; caspase hit class: caspase activation; outcome: active

Which result is listed for CSE1L (chromosome segregation 1 like) #4?
viability relative to mock: 0.81; caspase activity relative to mock: 1.14; viability hit class: no change; caspase hit class: no change; outcome: inactive

For PPP2R2A (protein phosphatase 2 regulatory subunit Balpha) #1, what was measured?
viability relative to mock: 0.68; caspase activity relative to mock: 3.68; viability hit class: no change; caspase hit class: caspase activation; outcome: active

With PPP2R2A (protein phosphatase 2 regulatory subunit Balpha) #2, what was measured?
viability relative to mock: 0.98; caspase activity relative to mock: 1.51; viability hit class: no change; caspase hit class: no change; outcome: inactive

With PPP2R2A (protein phosphatase 2 regulatory subunit Balpha) #3, what does the deposit list?
viability relative to mock: 0.98; caspase activity relative to mock: 4.31; viability hit class: no change; caspase hit class: caspase activation; outcome: active

What is on record for PPP2R2A (protein phosphatase 2 regulatory subunit Balpha) #4?
viability relative to mock: 0.96; caspase activity relative to mock: 1.71; viability hit class: no change; caspase hit class: no change; outcome: inactive

What did the screen give for ARLN (allregulin) #1?
viability relative to mock: 0.96; caspase activity relative to mock: 1.06; viability hit class: no change; caspase hit class: no change; outcome: inactive

Which result is listed for ARLN (allregulin) #2?
viability relative to mock: 0.96; caspase activity relative to mock: 1.06; viability hit class: no change; caspase hit class: no change; outcome: inactive

With ARLN (allregulin) #3, what was measured?
viability relative to mock: 0.4; caspase activity relative to mock: 0.84; viability hit class: reduced viability; caspase hit class: no change; outcome: active

Which result is listed for ARLN (allregulin) #4?
viability relative to mock: 1.02; caspase activity relative to mock: 1.08; viability hit class: no change; caspase hit class: no change; outcome: inactive

For PSMA7 (proteasome 20S subunit alpha 7) #1, what does the deposit list?
viability relative to mock: 0.3; caspase activity relative to mock: 4.16; viability hit class: reduced viability; caspase hit class: caspase activation; outcome: active

For PSMA7 (proteasome 20S subunit alpha 7) #2, what was measured?
viability relative to mock: 0.36; caspase activity relative to mock: 4.05; viability hit class: reduced viability; caspase hit class: caspase activation; outcome: active

For PSMA7 (proteasome 20S subunit alpha 7) #3, how do the results read?
viability relative to mock: 0.23; caspase activity relative to mock: 2.89; viability hit class: reduced viability; caspase hit class: caspase activation; outcome: active

For PSMA7 (proteasome 20S subunit alpha 7) #4, what was measured?
viability relative to mock: 0.39; caspase activity relative to mock: 5.21; viability hit class: reduced viability; caspase hit class: caspase activation; outcome: active
